Reference: the supplement of paper PMC4604168 (melanoma cell lines)
Some of the results follow. Repeats are few or missing, and single values can be far off.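 Cells were imaged in 1,536-well plates, and nuclei stained with an antibody against cleaved PARP were counted against all DNA-stained nuclei to give the apoptosis fraction. Screening doses were chosen to leave most cells alive, and resting and induced cleaved-PARP levels differ strongly between cell lines.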

Assays:
Assay in all cases: cleaved PARP positive nuclei fraction relative to DMSO control; melanoma cells; higher = more apoptosis
Conditions in all cases: library dose: low library concentration; 72 h
[1] = system: WM115
[2] = system: WM1716
[3] = system: WM1745
[4] = system: WM3526
[5] = system: WM3619
[6] = system: WM451Lu

| SMILES | cleaved PARP positive nuclei fraction [1] | cleaved PARP positive nuclei fraction [2] | cleaved PARP positive nuclei fraction [3] | cleaved PARP positive nuclei fraction [4] | cleaved PARP positive nuclei fraction [5] | cleaved PARP positive nuclei fraction [6] |
| --- | --- | --- | --- | --- | --- | --- |
| NC1(c2ccc(-c3nc4ccn5c(=O)[nH]nc5c4cc3-c3ccccc3)cc2)CCC1 + CO[C@@H]1[C@H](N(C)C(=O)c2ccccc2)C[C@H]2O[C@]1(C)n1c3ccccc3c3c4c(c5c6ccccc6n2c5c31)C(=O)NC4 [Midostaurin] (first compound 0.4 µM, partner dose 0.08 µM) | 359% | 249% | 168% | 107% | 109% | 83.5% |
| C[C@]1(O)C[C@@H](c2nc(-c3ccc4ccc(-c5ccccc5)nc4c3)c3c(N)nccn32)C1 + COc1cc2ncnc(Nc3ccc(Oc4ccccc4)cc3)c2cc1OC [SrcI1] (first compound 0.4 µM, partner dose 2 µM) | 142% | 20.3% | 130% | 173% | 101% | 30.6% |
| NC1(c2ccc(-c3nc4ccn5c(=O)[nH]nc5c4cc3-c3ccccc3)cc2)CCC1 + O=C(CCCCCCC(=O)Nc1ccccc1)NO [vorinostat] (first compound 0.4 µM, partner dose 0.08 µM) | 83.1% | 32.3% | 90.7% | 78.3% | 136% | 217% |
| Cn1cnc2c(F)c(Nc3ccc(Br)cc3Cl)c(C(=O)NOCCO)cc21 [selumetinib] + O=C(CCCCCCC(=O)Nc1ccccc1)NO [vorinostat] (first compound 0.015 µM, partner dose 0.08 µM) | 77.2% | 35.2% | 102% | 96% | 116% | 72.6% |
| Cn1cnc2c(F)c(Nc3ccc(Br)cc3Cl)c(C(=O)NOCCO)cc21 [selumetinib] + Oc1cc(-c2nc(-c3ccccc3)[nH]c2-c2ccncc2)ccc1Cl [L779450] (first compound 0.015 µM, partner dose 0.2 µM) | 201% | 88.9% | 110% | 143% | 123% | 57.3% |
| CN(c1ncccc1CNc1nc(Nc2ccc3c(c2)CC(=O)N3)ncc1C(F)(F)F)S(C)(=O)=O + c1cc(-c2cnn3cc(-c4ccc(OCCN5CCCCC5)cc4)cnc23)ccn1 [Dorsomorphin] (first compound 0.08 µM, partner dose 0.4 µM) | 661% | 271% | 109% | 87.6% | 118% | 99.6% |
| CCCCCCCCc1ccc(CCC(N)(CO)CO)cc1 [fingolimod] + Nc1ncn([C@H]2C[C@H](O)[C@@H](CO)O2)c(=O)n1 [decitabine] (first compound 2 µM, partner dose 0.1 µM) | 188% | 57.3% | 119% | 54.7% | 112% | 109% |
| Cn1cnc2c(F)c(Nc3ccc(Br)cc3Cl)c(C(=O)NOCCO)cc21 [selumetinib] + CCCCCCCCCCCC1=C(O)C(=O)C=C(O)C1=O [Embelin] (first compound 0.015 µM, partner dose 1.2 µM) | 69.1% | 193% | 113% | 95.8% | 131% | 69.9% |
| C[C@@H](N)c1ccc(C(=O)Nc2ccnc3[nH]ccc23)cc1 + Oc1cc(-c2nc(-c3ccccc3)[nH]c2-c2ccncc2)ccc1Cl [L779450] (first compound 0.4 µM, partner dose 0.2 µM) | 145% | 153% | 147% | 42.8% | 90.5% | 49% |
| CS(=O)(=O)c1ccc(C(=O)Nc2ccc(Cl)c(-c3ccccn3)c2)c(Cl)c1 [vismodegib] + CCN(CC)CCNC(=O)c1c(C)[nH]c(/C=C2\C(=O)Nc3ccc(F)cc32)c1C [sunitinib] (first compound 1 µM, partner dose 0.4 µM) | 108% | 54.1% | 89.2% | 89.5% | 65.4% | 93.4% |
| C[C@@H](N)c1ccc(C(=O)Nc2ccnc3[nH]ccc23)cc1 + C[C@]1(O)C[C@@H](c2nc(-c3ccc4ccc(-c5ccccc5)nc4c3)c3c(N)nccn32)C1 [OSI906] (first compound 0.4 µM, partner dose 0.4 µM) | 168% | 209% | 158% | 245% | 113% | 197% |
| Cn1sc(=O)n(Cc2ccccc2)c1=O + CO[C@H]1C[C@@H]2CC[C@@H](C)[C@@](O)(O2)C(=O)C(=O)N2CCCC[C@H]2C(=O)O[C@H]([C@H](C)C[C@@H]2CC[C@@H](OCCO)[C@H](OC)C2)CC(=O)[C@H](C)/C=C(\C)[C@@H](O)[C@@H](OC)C(=O)[C@H](C)C[C@H](C)/C=C/C=C/C=C/1C [everolimus] (first compound 0.4 µM, partner dose 0.02 µM) | 130% | 38.2% | 105% | 98.7% | 117% | 239% |
| CCN(CC)CCNC(=O)c1c(C)[nH]c(/C=C2\C(=O)Nc3ccc(F)cc32)c1C [sunitinib] + COc1ccc(COc2ccc(Cc3cnc(N)nc3N)cc2OC)cc1 [GW2580] (first compound 0.4 µM, partner dose 1 µM) | 84.9% | 76.6% | 144% | 39.1% | 82.5% | 110% |
| NC1(c2ccc(-c3nc4ccn5c(=O)[nH]nc5c4cc3-c3ccccc3)cc2)CCC1 + CC(C)(C)c1cnc(CSc2cnc(NC(=O)C3CCNCC3)s2)o1 [SNS-032] (first compound 0.4 µM, partner dose 0.01 µM) | 342% | 98.1% | 102% | 75.3% | 99.4% | 71.3% |
| CC1(C)CCC(c2ccc(Cl)cc2)=C(CN2CCN(c3ccc(C(=O)NS(=O)(=O)c4ccc(N[C@H](CCN5CCOCC5)CSc5ccccc5)c(S(=O)(=O)C(F)(F)F)c4)cc3)CC2)C1 + Nc1ccn([C@@H]2O[C@H](CO)[C@@H](O)C2(F)F)c(=O)n1 [gemcitabine] (first compound 0.4 µM, partner dose 0.0004 µM) | 138% | 194% | 605% | 41.6% | 146% | 258% |
| COc1ccc(C2=N[C@@H](c3ccc(Cl)cc3)[C@@H](c3ccc(Cl)cc3)N2C(=O)N2CCNC(=O)C2)c(OC(C)C)c1 [Nutlin-3] + C[C@]1(c2nc3c(C(N)=O)cccc3[nH]2)CCCN1 [Veliparib] (first compound 0.1 µM, partner dose 1.4 µM) | 232% | 88.6% | 89.4% | 82.1% | 121% | 101% |
| Cn1cnc2c(F)c(Nc3ccc(Br)cc3Cl)c(C(=O)NOCCO)cc21 [selumetinib] + COc1cc(Nc2ncc(F)c(Nc3ccc4c(n3)NC(=O)C(C)(C)O4)n2)cc(OC)c1OC [Tamatinib] (first compound 0.015 µM, partner dose 0.4 µM) | 288% | 39.1% | 163% | 94.2% | 120% | 117% |
| NC1(c2ccc(-c3nc4ccn5c(=O)[nH]nc5c4cc3-c3ccccc3)cc2)CCC1 + Oc1nc(-c2ccc(C(F)(F)F)cc2)nc2c1CSCC2 [XAV939] (first compound 0.4 µM, partner dose 2 µM) | 138% | 346% | 102% | 70.8% | 111% | 107% |
| COc1ccc(C2=N[C@@H](c3ccc(Cl)cc3)[C@@H](c3ccc(Cl)cc3)N2C(=O)N2CCNC(=O)C2)c(OC(C)C)c1 [Nutlin-3] + CCCS(=O)(=O)Nc1ccc(F)c(C(=O)c2c[nH]c3ncc(Cl)cc23)c1F [PLX4720] (first compound 0.1 µM, partner dose 0.08 µM) | 104% | 31.6% | 80.2% | 109% | 77.3% | 27.3% |
| C[C@]1(O)C[C@@H](c2nc(-c3ccc4ccc(-c5ccccc5)nc4c3)c3c(N)nccn32)C1 + CCc1ccc(CCOc2ccc(CC3SC(=O)NC3=O)cc2)nc1 [pioglitazone] (first compound 0.4 µM, partner dose 2 µM) | 113% | 51.3% | 115% | 185% | 112% | 71.7% |
| Cn1cnc2c(F)c(Nc3ccc(Br)cc3Cl)c(C(=O)NOCCO)cc21 [selumetinib] + CNC(=O)c1cc(Oc2ccc(NC(=O)Nc3ccc(Cl)c(C(F)(F)F)c3)cc2)ccn1 [sorafenib] (first compound 0.015 µM, partner dose 0.4 µM) | 141% | 107% | 92.9% | 25.3% | 96.9% | 46.5% |
| CC(=O)O[C@@]12CO[C@@H]1C[C@H](O)[C@@]1(C)C(=O)[C@H](O)C3=C(C)[C@@H](OC(=O)[C@H](O)[C@@H](NC(=O)OC(C)(C)C)c4ccccc4)C[C@@](O)([C@@H](OC(=O)c4ccccc4)[C@H]21)C3(C)C [Docetaxel] + CS(=O)(=O)CCNCc1ccc(-c2ccc3ncnc(Nc4ccc(OCc5cccc(F)c5)c(Cl)c4)c3c2)o1 [lapatinib] (first compound 0.0001 µM, partner dose 0.8 µM) | 363% | 74.2% | 202% | 151% | 168% | 93.7% |
| C[C@@H](N)c1ccc(C(=O)Nc2ccnc3[nH]ccc23)cc1 + COC(=O)c1sccc1S(=O)(=O)Nc1ccc(Nc2ccccc2)cc1OC [GSK0660] (first compound 0.4 µM, partner dose 1 µM) | 53.2% | 53.8% | 96.1% | 66.4% | 94.5% | 146% |
| CCCCCCCCc1ccc(CCC(N)(CO)CO)cc1 [fingolimod] + CCCS(=O)(=O)Nc1ccc(F)c(C(=O)c2c[nH]c3ncc(Cl)cc23)c1F [PLX4720] (first compound 2 µM, partner dose 0.08 µM) | 64.7% | 127% | 107% | 95.4% | 95.2% | 71.8% |

Reprinted at random: 2 entries already listed.

| SMILES | cleaved PARP positive nuclei fraction [1] | cleaved PARP positive nuclei fraction [2] | cleaved PARP positive nuclei fraction [3] | cleaved PARP positive nuclei fraction [4] | cleaved PARP positive nuclei fraction [5] | cleaved PARP positive nuclei fraction [6] |
| --- | --- | --- | --- | --- | --- | --- |
| Cn1cnc2c(F)c(Nc3ccc(Br)cc3Cl)c(C(=O)NOCCO)cc21 [selumetinib] + Oc1cc(-c2nc(-c3ccccc3)[nH]c2-c2ccncc2)ccc1Cl [L779450] (first compound 0.015 µM, partner dose 0.2 µM) | 201% | 88.9% | 110% | 143% | 123% | 57.3% |
| NC1(c2ccc(-c3nc4ccn5c(=O)[nH]nc5c4cc3-c3ccccc3)cc2)CCC1 + CO[C@@H]1[C@H](N(C)C(=O)c2ccccc2)C[C@H]2O[C@]1(C)n1c3ccccc3c3c4c(c5c6ccccc6n2c5c31)C(=O)NC4 [Midostaurin] (first compound 0.4 µM, partner dose 0.08 µM) | 359% | 249% | 168% | 107% | 109% | 83.5% |
